Out of some 46,000 compounds screened, about 900 (2%) were called active. The inconclusive results got no clear call from the source; some entries with a clear call stand among them for comparison. No stated cut-off is given here; in the data, active means ROS induction above about 79% (passing the limit was not always enough); inconclusive means no clear call, values can overlap the other calls.
test: ROS inducers in U2OS cancer cells, primary screen, cell-based, H2DCF-DA fluorescence (AID 624156); settings: at 10 µM, active compounds read high;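 further: 0% = DMSO vehicle median and 100% = reference compound median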

Compound	ROS induction (% of piperlongumine)
O=C1c2nc3cc(-c4ccccc4)[nH]n3c(=O)c2CN1Cc1ccccc1	inconclusive: 112%
CC(C)(C)c1ccc(S(=O)(=O)CCSc2nc3c(cc2C#N)CCCC3)cc1	inconclusive: 81.7%
COc1cccc(C(CC(=O)Nc2sc3c(c2C#N)CCCC3)NC(=O)c2ccccc2)c1 (stereo unspecified)	inconclusive: 90.5%
C[C@@H]1CN([C@@H](C)CO)C(=O)Cc2cc(NC(=O)Nc3ccc(F)cc3)ccc2O[C@@H]1CN(C)Cc1ccc(C(=O)Nc2ccccc2N)cc1	inconclusive: 83.1%
O=C(COc1ccccc1[N+](=O)[O-])Nc1ccc2oc(-c3ccc(F)cc3Cl)nc2c1	inactive: 2.48%
COc1ccccc1S(=O)(=O)N(C)C[C@@H]1OCc2cn(nn2)CCCC(=O)N([C@@H](C)CO)C[C@H]1C	inconclusive: 89.3%
Cn1c2ccccc2c2nnc(SCC(=O)Nc3ccc(Cl)cc3)nc21	inactive: 19.7%
Cc1ccc(C(C)C)c(OC(=O)CS(=O)c2ccc(C(F)(F)F)cc2[N+](=O)[O-])c1 (stereo unspecified)	inconclusive: 91.4%
CCOc1ccc(-c2cn3c(n2)sc2cc(C(=O)N(C)Cc4ccccc4)ccc23)cc1	inconclusive: 76.8%
COc1ccc(NC(=O)N(C)C[C@H]2Oc3c(NC(=O)c4nc5ccccc5s4)cccc3C(=O)N([C@H](C)CO)C[C@@H]2C)cc1	inactive: 1%
CC(C)NC(=O)N(C)C[C@@H]1Oc2c(NC(=O)c3ccncc3)cccc2C(=O)N([C@@H](C)CO)C[C@H]1C	active: 101%
CCOC(=O)c1c(NC(=O)Cn2cnc3ccccc3c2=O)sc2c1CCCC2	inconclusive: 81.4%
CC1=C(CO)C(=O)OC([C@@H](C)C2CC[C@H]3C4C[C@H]5O[C@]56[C@@H](O)C=CC(=O)[C@]6(C)C4CC[C@]23C)C1 (stereo partly specified)	active: 138%
O=C(CC1(O)C(=O)N(Cc2cccc3ccccc23)c2ccccc21)c1ccccn1 (stereo unspecified)	inactive: 46%
Cc1ccccc1OCC(=O)Nc1ccccc1C(=O)N1C(C)CCCC1C (stereo unspecified)	inconclusive: 109%
COCCOC(=O)N1C(=O)[C@@]2(c3cc(C#CCCO)ccc31)[C@H](C(=O)N1CCN(c3ncccn3)CC1)[C@H]1C(=O)O[C@H](c3ccccc3)[C@H](c3ccccc3)N1[C@@H]2c1ccccc1OCCO	active: 166%
C[C@H](CO)N1C[C@H](C)[C@@H](CN(C)Cc2ccc(C(=O)Nc3ccccc3N)cc2)Oc2c(NC(=O)c3ccc(-c4nccs4)cc3)cccc2C1=O	inconclusive: 98.3%
C[C@H](CO)N1C[C@H](C)[C@H](CN(C)C(=O)Nc2ccc(C(F)(F)F)cc2)Oc2ccc(NS(=O)(=O)c3cn(C)cn3)cc2CC1=O	active: 125%
C[C@@H]1CN([C@@H](C)CO)C(=O)c2cccc(NS(=O)(=O)c3ccc(F)cc3)c2O[C@H]1CN(C)Cc1ccc(-c2ccccc2)cc1	inconclusive: 123%
C[C@H]1CN([C@@H](C)CO)C(=O)c2cccc(NC(=O)c3ccc(-c4nccs4)cc3)c2O[C@@H]1CN(C)Cc1ccc(C(=O)O)cc1	inactive: -10.5%
C=CCNC(=O)[C@H]1[C@@H]2C(=O)O[C@@H](c3ccccc3)[C@@H](c3ccccc3)N2[C@@H](c2ccc(OCCO)cc2)[C@]12C(=O)N(C(=O)OCCOC)c1ccc(C#CC3(O)CCCCCC3)cc12	active: 105%

Fetched by structure from the list above, three records:
Compound	ROS induction (% of piperlongumine)
O=C(CC1(O)C(=O)N(Cc2cccc3ccccc23)c2ccccc21)c1ccccn1 (stereo unspecified)	inactive: 46%
CC(C)(C)c1ccc(S(=O)(=O)CCSc2nc3c(cc2C#N)CCCC3)cc1	inconclusive: 81.7%
COCCOC(=O)N1C(=O)[C@@]2(c3cc(C#CCCO)ccc31)[C@H](C(=O)N1CCN(c3ncccn3)CC1)[C@H]1C(=O)O[C@H](c3ccccc3)[C@H](c3ccccc3)N1[C@@H]2c1ccccc1OCCO	active: 166%

(more compounds)

Compound	ROS induction (% of piperlongumine)
C[C@H]1CN([C@@H](C)CO)C(=O)c2cccc(NC(=O)Nc3ccccc3)c2O[C@@H]1CN(C)C(=O)Nc1ccccc1	inconclusive: 147%
Cc1ccc(S(=O)(=O)N(C)C[C@H]2Oc3c(NC(=O)C4CCCCC4)cccc3C(=O)N([C@@H](C)CO)C[C@@H]2C)cc1	inconclusive: 113%
C[C@@H]1CN([C@@H](C)CO)C(=O)c2cc(NS(=O)(=O)c3ccc(F)cc3)ccc2O[C@H]1CN(C)Cc1ccc(Oc2ccccc2)cc1	inconclusive: 112%
C[C@H](CO)N1C[C@H](C)[C@H](CN(C)CC2CCCCC2)Oc2ccc(NC(=O)Nc3ccc(C(F)(F)F)cc3)cc2CC1=O	active: 153%
C[C@@H]1CN([C@H](C)CO)C(=O)Cc2cc(NC(=O)c3ccncc3)ccc2O[C@H]1CN(C)C	inconclusive: 79.6%
C[C@@H]1CN([C@H](C)CO)C(=O)c2cc(NS(=O)(=O)c3cn(C)cn3)ccc2O[C@H]1CN(C)C(=O)Nc1cccc2ccccc12	inconclusive: 130%
C=C1C(=O)O[C@H]2[C@H]1[C@@H](OC(=O)/C(C)=C\C)C(OC(C)=O)/C(C(=O)OC)=C\CC[C@@]1(C)O[C@H]21 (stereo partly specified)	active: 97.7%
C[C@@H]1CN([C@@H](C)CO)C(=O)c2cccc(NC(=O)CCCCCC(=O)Nc3ccccc3N)c2O[C@H]1CN(C)Cc1ccc(Cl)c(Cl)c1	active: 154%
O=C(Nc1ccc2nonc2c1)N1CCOCC1	inactive: -17.3%
COc1ccc(C(Nc2ccccn2)c2ccc3ccc(C)nc3c2O)cc1C (stereo unspecified)	inconclusive: 76.9%
COc1ccc(S(=O)(=O)Nc2cccc3c2O[C@H](CN(C)Cc2ccc(-c4ccccc4)cc2)[C@H](C)CN([C@@H](C)CO)C3=O)cc1	inconclusive: 79.9%
CC1CCc2c(sc3ncnc(SCCO)c23)C1 (stereo unspecified)	inconclusive: 236%
COc1ccc([Si](C)(C)[C@H]2[C@H](CCO)O[C@@]3(C(=O)N(Cc4ccccc4)c4ccc(N5CCC5=O)cc43)[C@@H]2C)cc1	inconclusive: 85.7%
C[C@H]1CN([C@@H](C)CO)C(=O)c2cc(NC(=O)CCN3CCOCC3)ccc2O[C@@H]1CN(C)S(=O)(=O)c1cccs1	inactive: 17.4%
Cc1noc(C)c1S(=O)(=O)Nc1ccc2c(c1)CC(=O)N([C@@H](C)CO)C[C@H](C)[C@H](CN(C)S(=O)(=O)c1ccc(Cl)cc1)O2	inconclusive: 76.3%
Cc1ccc(S(=O)(=O)N(C)C[C@H]2Oc3ccc(NC(=O)Nc4ccccc4)cc3C(=O)N([C@@H](C)CO)C[C@H]2C)cc1	inconclusive: 149%
O=C1O[C@H](c2ccccc2)[C@H](c2ccccc2)N2[C@H]1[C@@H](C(=O)NC[C@H](O)c1ccccc1)[C@]1(C(=O)Nc3ccccc31)[C@H]2c1ccccc1OCCO	inconclusive: 90.4%
Cc1ccc(N(C(=O)c2ccccc2C)S(=O)(=O)c2ccc(Cl)cc2)cc1	inactive: 39.2%
O=C(O)COc1ccc(C(=O)Nc2ccc(F)cc2)cc1	inconclusive: 93.1%
COc1ccc([Si](C)(C)[C@@H]2[C@@H](CCO)O[C@]3(C(=O)N(Cc4ccccc4)c4ccc(N5C(=O)c6cccc7cccc5c67)cc43)[C@H]2C)cc1	inconclusive: 103%
CC(=O)OC[C@H]1O[C@@H](Oc2cc(OC(C)=O)c3c(=O)cc(-c4ccc(OC(C)=O)cc4)oc3c2)[C@H](OC(C)=O)[C@@H](OC(C)=O)[C@@H]1OC(C)=O	active: 246%

Compound	ROS induction (% of piperlongumine)
C[C@H]1CN([C@@H](C)CO)C(=O)Cc2cc(NC(=O)Cc3ccccc3)ccc2O[C@H]1CN(C)C(=O)Nc1cccc2ccccc12	inconclusive: 107%
COc1ccc(S(=O)(=O)Nc2ccc3c(c2)C(=O)N([C@H](C)CO)C[C@H](C)[C@H](CN(C)S(=O)(=O)c2ccc(F)cc2)OCCCC[C@@H](C)O3)cc1	inconclusive: 95.8%
C=C1C(=O)O[C@H]2C[C@H](C)[C@@H]3CC(=O)C(C)=C3C[C@H]12	inconclusive: 82.6%
C[C@H]1CN([C@@H](C)CO)C(=O)CCCn2cc(nn2)CO[C@@H]1CN(C)S(=O)(=O)c1ccc(Oc2ccccc2)nc1	inconclusive: 80%
CCOC(=O)c1cnc2c(C(F)(F)F)cccc2c1NCCCN1CCOCC1	active: 113%
O=C(CC1(O)C(=O)N(Cc2ccccc2)c2ccc(Cl)cc21)c1ccncc1 (stereo unspecified)	inactive: 28.1%
CC(C)(C)c1csc(Cc2ccc(-c3csnn3)cc2)n1	inactive: -4.71%
C=CCN1C(=O)[C@@]2(O[C@@H](CCn3cc(CCO)nn3)[C@H]([Si](C)(C)c3ccc(OC)cc3)[C@H]2C)c2cc(N3C(=O)c4cccc5cccc3c45)ccc21	active: 89.6%
C[C@H](CO)N1C[C@H](C)[C@H](CN(C)Cc2ccc(C(F)(F)F)cc2)OCc2cnnn2CCCC1=O	inconclusive: 78.7%
C[C@@H]1CCCCO[C@@H](CN(C)C(=O)Nc2cccc3ccccc23)[C@@H](C)CN([C@H](C)CO)C(=O)c2cc(N(C)C)ccc2O1	inactive: 40.2%
C[C@@H]1CN([C@@H](C)CO)C(=O)c2cc(NC(=O)CCCN(C)C)ccc2O[C@H]1CN(C)S(=O)(=O)c1cn(C)cn1	inconclusive: 90.1%
Cc1ccc(/C=C/c2onc3c(=O)[nH]nc(C)c23)cc1	active: 119%
C[C@H](CO)N1C[C@H](C)[C@H](CN(C)C(=O)Nc2ccc3c(c2)OCO3)Oc2ccc(NC(=O)Nc3cccc4ccccc34)cc2C1=O	active: 79%
CC(=O)Nc1ccc(S(=O)(=O)Nc2c(C)nn(-c3ccccc3)c2C)cc1	inconclusive: 123%
COc1ccc(NC(=O)N(C)C[C@H]2Oc3c(cccc3N(C)C)C(=O)N([C@H](C)CO)C[C@@H]2C)cc1	active: 79.4%
CCOC(=O)c1cc(-c2ccnn2S(=O)(=O)c2cccc(C(F)(F)F)c2)on1	active: 184%
C[C@H](CO)N1C[C@H](C)[C@@H](CN(C)Cc2ccc(Oc3ccccc3)cc2)Oc2ccc(NS(=O)(=O)c3ccc(F)cc3)cc2C1=O	inconclusive: 453%
CCc1c(C)sc(NC(=O)C2CC3CCC2C3)c1C(=O)OC (stereo unspecified)	inconclusive: 87.3%
Cc1noc(C)c1S(=O)(=O)Nc1ccc2c(c1)C(=O)N([C@@H](C)CO)C[C@H](C)[C@@H](CN(C)C(=O)Nc1cccc3ccccc13)O2	inconclusive: 129%
